The supplement of paper PMC10849652
The list shows a part of the results.

The chains behind the UniProt entries cited, without tags or fusion partners. Where a name states a change or a piece, a line headed by the entry shows the natural chain unless it says otherwise.
UniProt Q969E8: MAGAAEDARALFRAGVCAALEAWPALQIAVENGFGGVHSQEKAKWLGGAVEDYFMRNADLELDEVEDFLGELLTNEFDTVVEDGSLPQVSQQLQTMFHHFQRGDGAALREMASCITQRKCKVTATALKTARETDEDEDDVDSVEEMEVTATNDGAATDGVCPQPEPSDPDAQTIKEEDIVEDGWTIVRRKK
UniProt Q6IBS0: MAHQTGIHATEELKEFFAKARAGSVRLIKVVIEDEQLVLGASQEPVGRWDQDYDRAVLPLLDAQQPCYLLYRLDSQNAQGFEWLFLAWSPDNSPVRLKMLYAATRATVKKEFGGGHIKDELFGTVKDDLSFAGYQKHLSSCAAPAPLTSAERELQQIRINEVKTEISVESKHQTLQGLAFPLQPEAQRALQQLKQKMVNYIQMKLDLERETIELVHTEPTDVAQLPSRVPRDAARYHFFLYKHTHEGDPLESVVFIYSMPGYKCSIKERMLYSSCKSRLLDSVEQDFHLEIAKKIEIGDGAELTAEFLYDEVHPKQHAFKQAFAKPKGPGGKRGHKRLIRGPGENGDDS
UniProt P61081: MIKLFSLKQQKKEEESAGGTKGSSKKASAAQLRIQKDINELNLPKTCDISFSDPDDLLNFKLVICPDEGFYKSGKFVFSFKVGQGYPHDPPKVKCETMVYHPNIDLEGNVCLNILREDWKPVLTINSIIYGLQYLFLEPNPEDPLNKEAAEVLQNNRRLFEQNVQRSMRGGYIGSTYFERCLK
UniProt Q9UBT2: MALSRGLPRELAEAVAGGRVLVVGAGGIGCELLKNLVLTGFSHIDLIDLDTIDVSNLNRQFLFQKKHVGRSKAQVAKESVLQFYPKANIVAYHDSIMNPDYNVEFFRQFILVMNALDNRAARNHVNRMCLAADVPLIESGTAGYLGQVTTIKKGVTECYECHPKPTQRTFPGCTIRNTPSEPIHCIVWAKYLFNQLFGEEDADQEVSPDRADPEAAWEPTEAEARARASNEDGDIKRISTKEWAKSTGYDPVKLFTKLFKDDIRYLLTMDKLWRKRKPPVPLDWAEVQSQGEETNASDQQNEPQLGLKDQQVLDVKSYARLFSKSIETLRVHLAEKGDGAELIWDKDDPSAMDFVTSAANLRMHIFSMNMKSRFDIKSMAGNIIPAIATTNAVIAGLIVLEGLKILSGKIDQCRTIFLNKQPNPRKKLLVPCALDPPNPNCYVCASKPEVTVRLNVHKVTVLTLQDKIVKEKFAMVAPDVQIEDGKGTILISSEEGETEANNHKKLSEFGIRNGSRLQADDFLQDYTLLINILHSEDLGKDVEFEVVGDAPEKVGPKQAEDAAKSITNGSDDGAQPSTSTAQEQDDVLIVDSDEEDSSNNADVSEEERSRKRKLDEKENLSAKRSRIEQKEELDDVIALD
UniProt Q7Z6J9: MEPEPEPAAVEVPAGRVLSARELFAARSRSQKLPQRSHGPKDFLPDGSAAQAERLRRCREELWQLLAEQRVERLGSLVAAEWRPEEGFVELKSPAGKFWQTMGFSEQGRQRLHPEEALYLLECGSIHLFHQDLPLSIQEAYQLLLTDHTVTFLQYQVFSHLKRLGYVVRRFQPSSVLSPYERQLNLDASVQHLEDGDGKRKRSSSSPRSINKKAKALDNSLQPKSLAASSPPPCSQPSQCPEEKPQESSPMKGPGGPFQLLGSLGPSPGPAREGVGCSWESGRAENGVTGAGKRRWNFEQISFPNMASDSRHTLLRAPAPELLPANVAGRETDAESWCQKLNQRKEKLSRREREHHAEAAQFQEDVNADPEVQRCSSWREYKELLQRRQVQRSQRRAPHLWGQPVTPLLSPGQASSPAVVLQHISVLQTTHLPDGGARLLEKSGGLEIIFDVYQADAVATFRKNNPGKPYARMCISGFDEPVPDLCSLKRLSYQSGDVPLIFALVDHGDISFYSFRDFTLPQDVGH
UniProt Q8NBS9: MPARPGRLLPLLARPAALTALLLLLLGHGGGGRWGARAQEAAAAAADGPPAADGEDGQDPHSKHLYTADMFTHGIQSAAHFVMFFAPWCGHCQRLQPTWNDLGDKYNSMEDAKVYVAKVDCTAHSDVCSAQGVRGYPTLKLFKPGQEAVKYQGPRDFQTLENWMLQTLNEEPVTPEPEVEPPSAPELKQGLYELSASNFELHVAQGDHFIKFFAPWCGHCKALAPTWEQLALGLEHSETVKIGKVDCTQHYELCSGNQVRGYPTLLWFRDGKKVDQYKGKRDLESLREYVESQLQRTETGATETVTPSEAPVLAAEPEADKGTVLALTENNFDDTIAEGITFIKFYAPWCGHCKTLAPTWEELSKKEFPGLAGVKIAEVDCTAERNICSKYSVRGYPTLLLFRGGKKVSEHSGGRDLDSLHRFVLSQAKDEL
UniProt Q9UJT0: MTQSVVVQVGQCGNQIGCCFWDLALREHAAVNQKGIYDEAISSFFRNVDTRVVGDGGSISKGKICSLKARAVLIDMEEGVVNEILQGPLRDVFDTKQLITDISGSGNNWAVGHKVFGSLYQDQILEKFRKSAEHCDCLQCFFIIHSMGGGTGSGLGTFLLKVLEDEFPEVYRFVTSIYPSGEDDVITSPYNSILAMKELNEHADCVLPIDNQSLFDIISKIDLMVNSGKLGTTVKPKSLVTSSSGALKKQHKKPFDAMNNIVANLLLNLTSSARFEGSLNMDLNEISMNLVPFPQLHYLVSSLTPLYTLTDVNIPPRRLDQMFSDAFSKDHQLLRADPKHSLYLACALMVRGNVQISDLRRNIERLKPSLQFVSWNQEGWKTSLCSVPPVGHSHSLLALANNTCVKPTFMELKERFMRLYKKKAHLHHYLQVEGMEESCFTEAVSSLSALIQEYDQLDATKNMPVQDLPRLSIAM
UniProt P63279, whole entry, looked up: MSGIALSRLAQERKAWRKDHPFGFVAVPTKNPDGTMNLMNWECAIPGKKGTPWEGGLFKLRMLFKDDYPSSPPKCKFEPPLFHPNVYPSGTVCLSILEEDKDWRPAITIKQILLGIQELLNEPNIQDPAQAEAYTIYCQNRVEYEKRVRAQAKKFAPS
UniProt P61086: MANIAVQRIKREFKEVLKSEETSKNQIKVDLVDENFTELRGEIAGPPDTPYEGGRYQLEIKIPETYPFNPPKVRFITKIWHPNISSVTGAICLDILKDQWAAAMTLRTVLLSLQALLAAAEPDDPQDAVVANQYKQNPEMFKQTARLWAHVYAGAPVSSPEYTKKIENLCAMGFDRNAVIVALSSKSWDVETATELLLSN
UniProt Q9C0C9: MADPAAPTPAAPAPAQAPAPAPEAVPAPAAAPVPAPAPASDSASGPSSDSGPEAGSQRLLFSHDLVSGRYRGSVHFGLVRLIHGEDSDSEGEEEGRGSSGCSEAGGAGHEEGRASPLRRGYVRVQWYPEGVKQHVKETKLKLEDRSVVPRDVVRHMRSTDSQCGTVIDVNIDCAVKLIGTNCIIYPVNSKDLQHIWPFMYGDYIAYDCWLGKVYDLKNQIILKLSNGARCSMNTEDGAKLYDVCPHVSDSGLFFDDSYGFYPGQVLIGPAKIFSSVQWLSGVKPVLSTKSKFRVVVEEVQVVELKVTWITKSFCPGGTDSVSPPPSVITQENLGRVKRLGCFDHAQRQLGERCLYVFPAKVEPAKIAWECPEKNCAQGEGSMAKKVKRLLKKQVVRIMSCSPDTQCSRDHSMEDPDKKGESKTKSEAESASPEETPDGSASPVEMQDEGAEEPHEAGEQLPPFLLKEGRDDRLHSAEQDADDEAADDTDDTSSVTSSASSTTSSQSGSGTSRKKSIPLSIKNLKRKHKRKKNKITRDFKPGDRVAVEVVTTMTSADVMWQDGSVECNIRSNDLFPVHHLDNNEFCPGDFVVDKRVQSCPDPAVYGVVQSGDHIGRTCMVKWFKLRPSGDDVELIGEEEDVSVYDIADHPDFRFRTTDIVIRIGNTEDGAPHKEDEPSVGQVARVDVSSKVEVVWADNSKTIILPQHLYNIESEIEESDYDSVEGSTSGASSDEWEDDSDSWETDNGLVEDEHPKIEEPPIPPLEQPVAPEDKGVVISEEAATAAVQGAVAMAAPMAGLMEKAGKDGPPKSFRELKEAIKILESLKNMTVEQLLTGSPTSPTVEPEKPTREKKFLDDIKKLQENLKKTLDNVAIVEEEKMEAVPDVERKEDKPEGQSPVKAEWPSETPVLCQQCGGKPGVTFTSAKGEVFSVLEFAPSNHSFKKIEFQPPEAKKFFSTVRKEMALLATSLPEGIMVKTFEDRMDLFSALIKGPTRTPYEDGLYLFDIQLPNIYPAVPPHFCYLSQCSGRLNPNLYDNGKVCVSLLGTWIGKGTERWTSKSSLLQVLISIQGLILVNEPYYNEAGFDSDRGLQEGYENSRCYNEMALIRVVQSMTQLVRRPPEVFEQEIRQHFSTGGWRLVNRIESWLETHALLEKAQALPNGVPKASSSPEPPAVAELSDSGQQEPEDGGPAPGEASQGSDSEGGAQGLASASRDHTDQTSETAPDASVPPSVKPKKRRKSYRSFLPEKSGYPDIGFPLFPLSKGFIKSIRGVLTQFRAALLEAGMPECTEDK
UniProt Q9Y5U2: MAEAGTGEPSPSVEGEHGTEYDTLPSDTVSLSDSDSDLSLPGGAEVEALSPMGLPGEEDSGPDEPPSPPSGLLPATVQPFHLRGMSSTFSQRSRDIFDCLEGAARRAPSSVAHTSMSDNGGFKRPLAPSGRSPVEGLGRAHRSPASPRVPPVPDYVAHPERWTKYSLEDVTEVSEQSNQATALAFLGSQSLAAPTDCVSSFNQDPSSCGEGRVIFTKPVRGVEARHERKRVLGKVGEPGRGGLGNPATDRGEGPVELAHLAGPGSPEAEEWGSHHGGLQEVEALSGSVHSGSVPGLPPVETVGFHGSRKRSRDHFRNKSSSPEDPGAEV
UniProt P68036, whole entry, looked up: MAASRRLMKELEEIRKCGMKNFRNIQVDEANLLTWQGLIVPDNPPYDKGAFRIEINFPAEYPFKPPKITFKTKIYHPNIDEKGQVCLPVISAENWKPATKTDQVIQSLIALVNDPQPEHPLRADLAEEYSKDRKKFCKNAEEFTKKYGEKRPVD
UniProt Q9UJK0: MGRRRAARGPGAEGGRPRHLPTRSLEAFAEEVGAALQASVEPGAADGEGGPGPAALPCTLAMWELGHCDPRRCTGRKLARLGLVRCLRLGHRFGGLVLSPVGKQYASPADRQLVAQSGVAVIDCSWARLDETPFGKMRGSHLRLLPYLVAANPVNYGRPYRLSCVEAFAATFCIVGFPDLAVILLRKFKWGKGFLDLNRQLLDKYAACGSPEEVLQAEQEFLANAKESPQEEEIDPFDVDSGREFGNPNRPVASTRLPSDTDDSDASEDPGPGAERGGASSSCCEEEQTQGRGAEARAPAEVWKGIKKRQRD
UniProt P62253: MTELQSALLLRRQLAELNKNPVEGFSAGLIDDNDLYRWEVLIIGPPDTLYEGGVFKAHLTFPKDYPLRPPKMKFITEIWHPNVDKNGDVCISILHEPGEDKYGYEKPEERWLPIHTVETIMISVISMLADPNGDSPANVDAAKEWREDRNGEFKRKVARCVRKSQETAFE
UniProt P04818: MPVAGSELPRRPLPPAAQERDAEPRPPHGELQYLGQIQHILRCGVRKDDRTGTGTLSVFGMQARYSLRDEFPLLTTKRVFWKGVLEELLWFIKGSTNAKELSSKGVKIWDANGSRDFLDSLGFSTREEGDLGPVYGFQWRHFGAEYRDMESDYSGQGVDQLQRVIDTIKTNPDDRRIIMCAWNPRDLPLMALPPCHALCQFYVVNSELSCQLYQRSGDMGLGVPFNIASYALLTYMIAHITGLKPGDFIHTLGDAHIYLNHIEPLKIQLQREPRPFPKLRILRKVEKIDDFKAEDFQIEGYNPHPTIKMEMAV

Assays:
Assay in all cases: log2 fold change, soluble protein after heating vs DMSO (PISA); higher = thermal stabilisation; K562 cells, 10 uM, 30 min; active = over 0.2 and 3.5 SD of the protein, either way, in both replicates (recomputed)
[1] = compound: COC1=CC=C(C=C1)CN2C=CC3=C2C=C(C=C3)C(=O)NO
In short: (§1)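 K562 cells at 2×10^6 cells/mL were treated for 30 min with 10 μM compound, and aliquots were heated for 3 min over 48°C-58°C before pooling. Extraction used PBS with 0.5% NP-40 at 4°C, and soluble protein was the supernatant after 21,000xg for 90 min, measured by TMTpro 16plex LC-MS/MS with channel sums equalised. Thermal stability values, relative to control samples and from duplicates, are log2 fold changes.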

filanesib = compound: CON(C)C(=O)N1N=C(c2cc(F)ccc2F)S[C@@]1(CCCN)c1ccccc1 [filanesib]
In short: as §1

zotarolimus = compound: CO[C@H]1C[C@@H]2CC[C@@H](C)[C@@](O)(O2)C(=O)C(=O)N2CCCC[C@H]2C(=O)O[C@H]([C@H](C)C[C@@H]2CC[C@H](n3cnnn3)[C@H](OC)C2)CC(=O)[C@H](C)/C=C(\C)[C@@H](O)[C@@H](OC)C(=O)[C@H](C)C[C@H](C)/C=C/C=C/C=C/1C [zotarolimus]
In short: as §1

idasanutlin = compound: COc1cc(C(=O)O)ccc1NC(=O)[C@@H]1N[C@@H](CC(C)(C)C)[C@](C#N)(c2ccc(Cl)cc2F)[C@H]1c1cccc(Cl)c1F [idasanutlin]
In short: as §1

alisertib = compound: COc1cc(Nc2ncc3c(n2)-c2ccc(Cl)cc2C(c2c(F)cccc2OC)=NC3)ccc1C(=O)O [alisertib]
In short: as §1

[2] = compound: COc1cc2nc(-c3cc(F)ccc3O)nc(N[C@@H]3CNC[C@H]3C(C)(C)O)c2cc1OC
In short: as §1

gefitinib = compound: COc1cc2ncnc(Nc3ccc(F)c(Cl)c3)c2cc1OCCCN1CCOCC1 [gefitinib]
In short: as §1

[3] = compound: COc1cccc2cc(-c3nc([C@H]4CC[C@H](C(=O)O)CC4)n4ncnc(N)c34)[nH]c12
In short: as §1

lapatinib = compound: CS(=O)(=O)CCNCc1ccc(-c2ccc3ncnc(Nc4ccc(OCc5cccc(F)c5)c(Cl)c4)c3c2)o1 [lapatinib]
In short: as §1

pictilisib = compound: CS(=O)(=O)N1CCN(Cc2cc3nc(-c4cccc5[nH]ncc45)nc(N4CCOCC4)c3s2)CC1 [pictilisib]
In short: as §1

[4] = compound: CS(=O)(=O)c1ccc(-c2cnc(N)c(C(=O)Nc3ccccc3)n2)cc1
In short: as §1

crizotinib = compound: C[C@@H](Oc1cc(-c2cnn(C3CCNCC3)c2)cnc1N)c1c(Cl)ccc(F)c1Cl [crizotinib]
In short: as §1

[5] = compound: C[C@@H]1COCCN1C2=NC(=NC(=C2)C3(CC3)S(=O)(=O)C)C4=C5C=CNC5=CC=C4
In short: as §1

[6] = compound: C[C@H](C1=CC=C(C=C1)C(=O)NC2=C3C=CNC3=NC=C2)N
In short: as §1

duvelisib = compound: C[C@H](Nc1ncnc2nc[nH]c12)c1cc2cccc(Cl)c2c(=O)n1-c1ccccc1 [duvelisib]
In short: as §1

gandotinib = compound: Cc1cc(Nc2cc(CN3CCOCC3)c3nc(C)c(Cc4ccc(Cl)cc4F)n3n2)n[nH]1 [gandotinib]
In short: as §1

tozasertib = compound: Cc1cc(Nc2cc(N3CCN(C)CC3)nc(Sc3ccc(NC(=O)C4CC4)cc3)n2)n[nH]1 [tozasertib]
In short: as §1

[7] = compound: Cc1cc(SCc2sc(-c3ccc(C(F)(F)F)cc3)nc2C)ccc1OCC(=O)O
In short: as §1

doramapimod = compound: Cc1ccc(-n2nc(C(C)(C)C)cc2NC(=O)Nc2ccc(OCCN3CCOCC3)c3ccccc23)cc1 [doramapimod]
In short: as §1

ispinesib = compound: Cc1ccc(C(=O)N(CCCN)[C@@H](c2nc3cc(Cl)ccc3c(=O)n2Cc2ccccc2)C(C)C)cc1 [ispinesib]
In short: as §1

Measured: log2 fold change

TSR2 (UniProt Q969E8)
inactive: [1] 0.208 | filanesib 0.029 | zotarolimus 0.059 | idasanutlin 0.033 | alisertib -0.077 | [2] -0.078 | gefitinib -0.03 | [3] -0.015 | lapatinib 0.028 | pictilisib 0.093 | [4] 0.028 | crizotinib 0.047 | [5] -0.011 | [6] -0.158 | duvelisib 0.045 | gandotinib -0.133 | tozasertib 0.149 | [7] 0.008 | doramapimod -0.008 | ispinesib 0.13

TWF2 (UniProt Q6IBS0)
inactive: [1] 0.015 | filanesib -0.094 | zotarolimus 0.043 | idasanutlin -0.031 | alisertib -0.042 | [2] -0.003 | gefitinib 0.018 | [3] 0.047 | lapatinib 0.078 | pictilisib 0.11 | [4] 0.021 | crizotinib -0.032 | [5] 0.047 | [6] -0.059 | duvelisib -0.004 | gandotinib -0.069 | tozasertib 0.015 | [7] -0.013 | doramapimod 0.008 | ispinesib 0.136

UBE2M (UniProt P61081)
inactive: [1] -0.014 | filanesib -0.076 | zotarolimus 0.008 | idasanutlin -0.091 | alisertib -0.017 | [2] 0.07 | gefitinib 0.015 | [3] 0.027 | lapatinib -0.012 | pictilisib 0.095 | [4] 0.027 | crizotinib -0.019 | [5] 0.105 | [6] -0.021 | duvelisib 0.063 | gandotinib -0.019 | tozasertib 0.008 | [7] 0.01 | doramapimod -0.049 | ispinesib 0.046

TUBB4A (UniProt M0QYM7)
inactive: [1] -0.276 | filanesib -0.011 | zotarolimus -0.464 | idasanutlin 0.057 | alisertib 0.171 | [2] 0.233 | gefitinib 0.046 | [3] 0.311 | lapatinib -0.358 | pictilisib 0.117 | [4] 0.062 | crizotinib 0.028 | [5] 0.137 | [6] 0.486 | duvelisib 0.216 | gandotinib 0.15 | tozasertib -0.161 | [7] -0.098 | doramapimod 0.017

UBA2 (UniProt Q9UBT2)
inactive: [1] 0.004 | filanesib -0.025 | zotarolimus 0.034 | idasanutlin -0.035 | alisertib 0.009 | [2] 0.037 | gefitinib -0.028 | [3] -0.009 | lapatinib -0.005 | pictilisib 0.073 | [4] 0.026 | crizotinib 0.12 | [5] 0.064 | [6] -0.113 | duvelisib 0.038 | gandotinib 0 | tozasertib 0.1 | [7] 0.023 | doramapimod -0.037 | ispinesib 0.089

TSEN54 (UniProt Q7Z6J9)
inactive: [1] 0.062 | filanesib 0.015 | zotarolimus -0.001 | idasanutlin 0.016 | alisertib -0.045 | [2] 0.034 | gefitinib -0.039 | [3] -0.022 | lapatinib 0.03 | pictilisib -0.203 | [4] -0.117 | crizotinib -0.055 | [5] 0.094 | [6] -0.058 | duvelisib 0.077 | gandotinib -0.019 | tozasertib 0.012 | [7] 0.061 | doramapimod 0.064 | ispinesib -0.096

TXNDC5 (UniProt Q8NBS9)
inactive: [1] 0.007 | filanesib -0.031 | zotarolimus 0.021 | idasanutlin 0.013 | alisertib -0.039 | [2] -0.007 | gefitinib 0.011 | [3] -0.016 | lapatinib -0.027 | pictilisib -0.038 | [4] -0.008 | crizotinib 0.069 | [5] -0.028 | [6] -0.05 | duvelisib 0.016 | gandotinib 0.048 | tozasertib 0.021 | [7] -0.027 | doramapimod -0.044 | ispinesib 0.063

TUBE1 (UniProt Q9UJT0)
inactive: [1] -0.143 | filanesib 0.069 | zotarolimus -0.046 | idasanutlin 0.03 | alisertib -0.021 | [2] -0.003 | gefitinib 0.037 | [3] 0.055 | lapatinib 0.056 | pictilisib 0.045 | [4] 0.003 | crizotinib 0.019 | [5] -0.085 | [6] -0.047 | duvelisib 0.045 | gandotinib 0.032 | tozasertib -0.076 | [7] -0.005 | doramapimod -0.01 | ispinesib 0.006

UBE2I (UniProt P63279)
inactive: [1] -0.027 | filanesib -0.099 | zotarolimus 0.039 | idasanutlin -0.062 | alisertib -0.024 | [2] -0.003 | gefitinib 0 | [3] 0.023 | lapatinib -0.046 | pictilisib 0.035 | [4] 0.026 | crizotinib 0.005 | [5] 0.092 | [6] -0.08 | duvelisib 0.033 | gandotinib -0.009 | tozasertib -0.014 | [7] 0.027 | doramapimod -0.067 | ispinesib 0.051

Copied from above (two entries):
TUBB4A (UniProt M0QYM7)
inactive: [1] -0.276 | filanesib -0.011 | zotarolimus -0.464 | idasanutlin 0.057 | alisertib 0.171 | [2] 0.233 | gefitinib 0.046 | [3] 0.311 | lapatinib -0.358 | pictilisib 0.117 | [4] 0.062 | crizotinib 0.028 | [5] 0.137 | [6] 0.486 | duvelisib 0.216 | gandotinib 0.15 | tozasertib -0.161 | [7] -0.098 | doramapimod 0.017

UBA2 (UniProt Q9UBT2)
inactive: [1] 0.004 | filanesib -0.025 | zotarolimus 0.034 | idasanutlin -0.035 | alisertib 0.009 | [2] 0.037 | gefitinib -0.028 | [3] -0.009 | lapatinib -0.005 | pictilisib 0.073 | [4] 0.026 | crizotinib 0.12 | [5] 0.064 | [6] -0.113 | duvelisib 0.038 | gandotinib 0 | tozasertib 0.1 | [7] 0.023 | doramapimod -0.037 | ispinesib 0.089

(next part)

UBE2K (UniProt P61086)
inactive: [1] 0.214 | filanesib -0.028 | zotarolimus 0.002 | idasanutlin -0.052 | alisertib -0.032 | [2] -0.084 | gefitinib 0.028 | [3] -0.031 | lapatinib 0.066 | pictilisib 0.043 | [4] 0.013 | crizotinib 0.005 | [5] 0.044 | [6] -0.127 | duvelisib 0.001 | gandotinib 0.021 | tozasertib 0.035 | [7] -0.027 | doramapimod -0.015 | ispinesib 0.129

UBE2O (UniProt Q9C0C9)
inactive: [1] 0.146 | filanesib -0.055 | zotarolimus 0 | idasanutlin -0.029 | alisertib -0.102 | [2] 0.061 | gefitinib 0.021 | [3] -0.008 | lapatinib -0.023 | pictilisib 0.005 | [4] 0.041 | crizotinib -0.039 | [5] -0.016 | [6] -0.004 | duvelisib 0.034 | gandotinib -0.061 | tozasertib -0.006 | [7] 0.021 | doramapimod 0.021 | ispinesib -0.031

TSSC4 (UniProt Q9Y5U2)
inactive: [1] -0.006 | filanesib 0.162 | zotarolimus -0.002 | idasanutlin 0.066 | alisertib 0.039 | [2] 0.015 | gefitinib 0.007 | [3] 0.087 | lapatinib 0.055 | pictilisib -0.114 | [4] -0.036 | crizotinib 0.089 | [5] -0.005 | [6] 0.09 | duvelisib -0.176 | gandotinib 0.136 | tozasertib 0.005 | [7] 0.05 | doramapimod 0.022 | ispinesib -0.131

UBE2L3 isoform 3 (UniProt P68036)
inactive: [1] -0.037 | filanesib -0.033 | zotarolimus 0.002 | idasanutlin 0.03 | alisertib -0.065 | [2] 0.01 | gefitinib 0.004 | [3] -0.002 | lapatinib -0.036 | pictilisib 0.008 | [4] 0.052 | crizotinib 0.004 | [5] -0.025 | [6] -0.094 | duvelisib 0.032 | gandotinib 0.016 | tozasertib 0.007 | [7] -0.015 | doramapimod -0.022 | ispinesib 0.035

TSR3 (UniProt Q9UJK0)
inactive: [1] -0.009 | filanesib 0.06 | zotarolimus -0.017 | idasanutlin 0.052 | alisertib -0.056 | [2] 0.02 | gefitinib -0.014 | [3] 0.022 | lapatinib 0.011 | pictilisib 0.004 | [4] -0.018 | crizotinib 0.086 | [5] 0.105 | [6] 0.083 | duvelisib 0.029 | gandotinib 0.015 | tozasertib -0.043 | [7] -0.061 | doramapimod 0.003 | ispinesib -0.043

UBE2G1 (UniProt P62253)
inactive: [1] -0.014 | filanesib -0.07 | zotarolimus 0.04 | idasanutlin -0.04 | alisertib -0.004 | [2] 0.001 | gefitinib -0.026 | [3] 0.009 | lapatinib -0.069 | pictilisib 0.019 | [4] -0.009 | crizotinib -0.011 | [5] 0.076 | [6] -0.13 | duvelisib -0.045 | gandotinib -0.092 | tozasertib 0.05 | [7] 0.014 | doramapimod 0.018 | ispinesib 0.01

TYMS (UniProt P04818)
inactive: [1] 0.051 | filanesib 0.032 | zotarolimus 0.079 | idasanutlin -0.024 | alisertib -0.078 | [2] 0.059 | gefitinib 0.052 | [3] -0.04 | lapatinib -0.038 | pictilisib -0.088 | [4] 0.034 | crizotinib -0.035 | [5] -0.003 | [6] -0.016 | duvelisib 0.012 | gandotinib 0.127 | tozasertib 0.027 | [7] 0.021 | doramapimod -0.005 | ispinesib 0.01
